The target of the assay is FLAG::CG33172 (Drosophila melanogaster) (UniProt Q86B53). The assay is described as follows: co-IP.

Sequences of proteins named here, by UniProt entry; tags and fusion partners are left off.
UniProt Q86B53: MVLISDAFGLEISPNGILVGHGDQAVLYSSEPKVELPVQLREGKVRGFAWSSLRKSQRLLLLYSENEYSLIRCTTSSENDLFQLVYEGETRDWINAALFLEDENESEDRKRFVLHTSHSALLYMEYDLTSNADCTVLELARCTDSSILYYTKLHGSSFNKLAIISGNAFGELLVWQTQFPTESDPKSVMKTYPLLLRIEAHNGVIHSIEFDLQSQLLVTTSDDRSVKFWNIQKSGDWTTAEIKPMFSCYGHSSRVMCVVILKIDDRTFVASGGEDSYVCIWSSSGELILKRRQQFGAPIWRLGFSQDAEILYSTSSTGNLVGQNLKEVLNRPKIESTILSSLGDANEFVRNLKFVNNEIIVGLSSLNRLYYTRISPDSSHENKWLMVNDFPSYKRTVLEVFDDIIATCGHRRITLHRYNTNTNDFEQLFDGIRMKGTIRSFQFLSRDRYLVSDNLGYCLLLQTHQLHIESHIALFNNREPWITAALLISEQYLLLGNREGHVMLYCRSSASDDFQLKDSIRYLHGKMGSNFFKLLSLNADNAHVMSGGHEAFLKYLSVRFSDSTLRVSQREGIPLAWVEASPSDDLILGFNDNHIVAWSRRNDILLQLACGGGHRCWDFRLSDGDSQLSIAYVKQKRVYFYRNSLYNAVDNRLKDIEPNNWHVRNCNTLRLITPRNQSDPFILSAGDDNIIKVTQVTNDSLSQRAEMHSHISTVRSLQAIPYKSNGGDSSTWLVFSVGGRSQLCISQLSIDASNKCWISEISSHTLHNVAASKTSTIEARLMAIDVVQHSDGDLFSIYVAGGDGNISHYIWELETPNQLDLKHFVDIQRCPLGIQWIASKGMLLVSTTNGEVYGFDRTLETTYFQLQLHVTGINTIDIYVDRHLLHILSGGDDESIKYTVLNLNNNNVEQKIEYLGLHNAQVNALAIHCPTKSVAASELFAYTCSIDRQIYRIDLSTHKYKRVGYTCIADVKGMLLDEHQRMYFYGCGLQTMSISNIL
UniProt Q9VDD9: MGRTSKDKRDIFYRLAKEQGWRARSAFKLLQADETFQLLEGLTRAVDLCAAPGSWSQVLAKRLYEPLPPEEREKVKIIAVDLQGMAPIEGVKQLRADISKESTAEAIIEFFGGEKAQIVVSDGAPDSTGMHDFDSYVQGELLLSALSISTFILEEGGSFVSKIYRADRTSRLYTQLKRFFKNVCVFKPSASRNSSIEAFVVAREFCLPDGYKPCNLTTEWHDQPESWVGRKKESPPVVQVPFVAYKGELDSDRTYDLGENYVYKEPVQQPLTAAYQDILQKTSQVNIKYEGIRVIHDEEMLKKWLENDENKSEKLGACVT

Results are given in words; binding and its absence hold for the method and conditions named. Binding seen in cells or lysates may run through a third protein. Some binding calls cover weakened binding; strength is not graded here.

Turning to “GST::CG7009 (from UniProt Q9VDD9 1-320) (enzyme)”, the binding entry is recorded as “binds”.
